The values below come from PubChem BioAssay AID1508600 (Functional Genomics Laboratory (NCATS/FGL), 2020).

About 3,700 (7%) of roughly 53,000 sequences were called active.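 How the source made its calls: active means gene knockdowns whose robust z-score for IL-1 alpha signal is at least 2 or at most -2, so actives lie on both sides; inactive means the rest.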 Some of the results follow.

The nature of the assay: Components of the Cytosolic LPS Sensing Pathway: Gene Identification via Genome-wide siRNA Screen.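 Further: robust z of the log signal after scaling to non-targeting control siRNA wells of the plate.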 The following applies: RAW264.7 macrophages, IL-1a HTRF, actives lie on both sides, screened at 100 nM (by protocol), cells primed 5 h with Pam3CSK4 first. Summed up:
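Read-out: IL-1a HTRF on supernatant, divided by plate negative-control median ×100, log-transformed and converted to robust z-score. Cells were RAW264.7 given 100 nM siRNA, Pam3CSK4-primed 5 hours, then LipidA-transfected 24 hour.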
In the case of GGAUAAAUUUCAAGAUGUGTT against Naip5, the z-score is inactive: -0.552.
Turning to GGGAAAUCAAGAUCAUUUCTT against Olfr1294, the z-score was inactive: 0.256.
Under GGGAUAGAGAAGAAGAAAATT against Dguok stands inactive: -0.161.
As for GGGACUGUAUAUGUAAAGATT against Adgb, the z-score is inactive: 0.509.
As to GGAUGAGGUAUUAACAAGUTT against Trir, the z-score was inactive: -0.312.
GGAAAUCAGACUGCUCAAGTT against Nek3: the z-score was inactive: -1.14.
For GCCACCUCAAUGAAAGGAGTT against Slc23a1, the z-score was inactive: 1.83.
On to CUACGAGCCACUUCUGAGATT against Krt87, for which the z-score is inactive: -0.431.
Under GCCUCAGUAUUGGUGCUCUTT against Shisal2b stands inactive: -0.643; under GGUCAAAUAAAACAGAAGATT against Denr, inactive: 0.724.
GUUUUGUUUCAGAGCACAATT against Olfr898: the z-score was inactive: 0.465.
As to GGAAGGAGUAUAUUAAUGCTT against Stx18, the z-score is inactive: -0.219.
With CCUACUACCAGGAUGAACATT against Men1, the z-score is inactive: -0.512.
“GGAUUGCUGUAAAAUACAATT against Cdkn2aipnl”: the z-score is active: 2.16.
With GCCUCAUGUACGGACACAATT against Mpp4, the z-score is inactive: -0.418.
For the sequence GGUGGUCUACCAGCAUUUGTT against Pde4dip, the z-score is active: 2.16.
In the case of GCUGGAGACGUAUUUGUCCTT against Olfr294 it was active: 2.17; in that of GGUAAAAGCGAUUUGGACUTT against Gsc, inactive: -0.51; in that of GGCCAUCAGUAUCAGCAAATT against Hip1r, inactive: 0.547.
In the case of GGUUAACGAGCACAUUACCTT against Lmod2 it was inactive: -0.00208; in that of GGCUAUUCGCUAUUGCCAUTT against Tssk3, inactive: 0.135.
Consider GGGAUUAAUACAGCAAUUUTT against Ddx24, for which the z-score was inactive: -1.62.
Take GGGUAUGGUUCUGUUGGCATT against Pxmp4: the z-score was inactive: -1.45.
For GGUUUUGGGUCUAUGCUUCTT against Sde2, the z-score is inactive: 0.311.
Consider GGCAGAUCUGAUCAACGGATT against Mtln, for which the z-score was active: -2.14.
“CCGAGAGUUAACCUCAAAATT against 4931440P22Rik”: the z-score was inactive: -0.894.
Consider CGAUAAGGGCUGUUUAUAUTT against Rnasel, for which the z-score was inactive: 0.26.
For CCAACCUUUCCGCAUGAUGTT against Rpusd1, the z-score was inactive: -0.237.
In the case of “GGGACACUGGGAAGAAACATT against 2810021J22Rik”, the z-score was inactive: -0.548.
Take GGGCAUGAUUUUCACUUCCTT against Gpr150: the z-score is inactive: 0.79.
Turning to GGAGAUAUGGAAGAAGACATT against Pja2, the z-score was inactive: 0.566.
With GCUGCAUUGUGGAUUAUAUTT against Thumpd1, the z-score is inactive: 0.354.
As to GCGACUUGCUGAAUGAUUUTT against Pfkm, the z-score was inactive: 0.968.
For the sequence CCCUCAGCAGUUUAUGGAUTT against Kin, the z-score is inactive: 0.27.
Under CGAUUGACUUAAGAUUCAGTT against Hlf stands inactive: -0.612.
Under GCUUUAGAAUUCCAUACGATT against Zfp114 stands inactive: 1.65; under CGAAGUUCACUUCUUUGAGTT against Eif2a, inactive: 0.318.
As to CCGUCCAAAUCCUUAUUGATT against Pcdhb2, the z-score was inactive: 0.425.
For the sequence “GGAGAACCAUGAGAGGGACTT against 1700037C18Rik”, the z-score is inactive: -0.0305.
As for UCAGCUGGUUUUAAUCUCUTT against Olfr1029, the z-score is inactive: -0.193.
For the sequence GGGAAGAGAGACGAAAAAATT against Nufip1, the z-score is inactive: 1.13.
In the case of CCAGCAACCUUAAGAAAUUTT against Ppp2r1a it was inactive: 1.33.
Consider GGGACAGCAAAGAAGAUAATT against Rrad, for which the z-score was inactive: -1.25.
Regarding GGAUGUGCUCUGUGAAUGCTT against Pgf, the z-score was inactive: 0.533.
As to GGUGAUGAAGAUUUCAAAGTT against Tcf7, the z-score is inactive: 0.598.
For GGGUUUACAAAAGAAUAUGTT against Nck2, the z-score was inactive: -1.53.
For GGAGAAAUUUAAGAAGAGUTT against Xrcc5, the z-score is inactive: 0.674.
Take GGUUGAAAUUCGGAAAAAATT against Mnat1: the z-score was inactive: -0.95.
As for GUCAUGGUAGGGAUUUACATT against Taar4, the z-score was active: -2.83.
In the case of CCUCAAUUGCAUGUGACCUTT against Itgb1bp1 it was active: -2.32.
On to GAAUCACAGGACUUCUGCATT against Bcl2, for which the z-score was inactive: 0.124.
In the case of GCAAGAAGUUCCUAUCAUCTT against Polr2b it was inactive: -1.67.
Regarding GGAUGACAAUCAACAUUCCTT against Ppp6r1, the z-score is inactive: -1.66.
In the case of CCUCAUGCUAGCCUCAUGATT against Actg1, the z-score is inactive: -0.214.
Take GGACUUAAUCCCAUGGAGCTT against Gask1a: the z-score is inactive: 0.345.
Under GGAAGUGACCUGUCUGAAGTT against Gramd1a stands inactive: 0.641; under GCUCCACAUGAGAUUCUCATT against Sec14l1, inactive: -1.92.
With GCCUACUCCCAAGAGGAAATT against Gprc5a, the z-score was active: 2.32.
Take GGCACCUUUCAACGUAACCTT against Ntn3: the z-score was inactive: 1.32.
As for GGUCAGAGAAAGAUGUAAATT against Mtfr1, the z-score is inactive: -0.915.
Regarding GGGCUUUUACCUGAAUCACTT against Megf9, the z-score is inactive: 0.438.
Turning to CCAAAUGAAGCUCUGAAGATT against Tmtc3, the z-score is inactive: -0.21.
Regarding GGUUACUCUCCAGAUGAAATT against Srpx2, the z-score was inactive: 0.0702.
Under GGCUAUUCCUUUGUGACCATT against Actg2 stands inactive: -0.014.
Turning to GGACAUCAGAUGAGAAUGUTT against Rab19, the z-score was inactive: -0.408.
Under GGGUACCUAGGGUUAUGAATT against Hps6 stands inactive: -0.606; under GGUUGUCAAAGUCAAACCATT against H1f0, inactive: -0.527; under CGAAGCCUAUCGAAAAGUCTT against Adcyap1, inactive: 0.998.
For CCGUUCCAUCAUUAAGACCTT against Tssk2, the z-score is inactive: 0.359.
For the sequence GGAACUUGGUGCAAUCAUCTT against Pld4, the z-score is inactive: -0.601.
On to GGUCAUUCUGGCUUAGUAATT against Hira, for which the z-score is inactive: -0.335.
In the case of GUUCAAGAGGGAGCUGGAATT against Pomc it was inactive: 0.842.
As for CGCUCAAAAAUGGAUUCAATT against Atad5, the z-score was inactive: 0.323.
In the case of GCCCACAUUUGUGUAAUUCTT against Olfr653 it was inactive: -1.92.
For GGUGAUCAGAAAGUACACCTT against Dtx2, the z-score is inactive: 0.818.
Turning to GGACACUUCCAUGUGCUACTT against Cep19, the z-score is active: 2.14.
In the case of GGCAGGACUCUGGAACAAGTT against Slc2a8 it was inactive: -1.75; in that of GGAACAGAUUCUUAACUCCTT against Kash5, inactive: 0.438; in that of CGAAUAUUGUGUCAGGUAUTT against Ppp4r1, inactive: 0.134.
In the case of GGUCAGAAGAGAUGCCAAUTT against Hcar1, the z-score was inactive: -0.494.
For GGACUGAAAGACUUGCUCGTT against Hprt, the z-score is inactive: -0.21.
In the case of GCAGUUUUUGAGUCACUACTT against Calm5 it was inactive: 0.954; in that of GCGAAGGCGAUUUCUACUATT against A3galt2, inactive: 0.275.
In the case of GGUGCUGGAGAUGAAGAACTT against Mtus2 it was inactive: 1.42.
On to GCACAUGCAUAUCUGGAUCTT against Olfr577, for which the z-score is inactive: 0.768.
For the sequence GGCAGAACCCUUUGAUGACTT against Fos, the z-score was inactive: -0.0931.
As for CCAUUUAACCGUAAGACGUTT against Krtap19-5, the z-score was inactive: 0.346.
Take GGCAAAUACUUCACAUUAUTT against Nkrf: the z-score is inactive: -1.36.
Under CCAUACAUCAGUACUUACCTT against Olfr553 stands inactive: 0.477; under GGCCUCAACUAAGAACCCUTT against Pcdh1, inactive: -0.298; under GGUGGAUAUUGAUAUCAAGTT against Fga, active: 3.31.
GCAGUUUUGGGCAAUACCUTT against Olfr358: the z-score is inactive: 1.22.
For GGCUGCUCUAUUAUAAGAATT against Adap2, the z-score was inactive: 0.392.
Under CCUCAACAGUUCCUAAGUUTT against Olfr1275 stands inactive: -0.00172; under GGAAAGGUGUGAACAAUUGTT against Myh8, inactive: 0.297.
For the sequence GGAUCGAUCUGUUGAACAGTT against Dag1, the z-score is inactive: 0.957.
On to GGAAGUGGUGGAACUCCUGTT against Tmem215, for which the z-score was active: -2.65.
Under GGCAACUCUUGAAGACUUGTT against Gdf15 stands inactive: 0.00448; under GGUCACAAGAAGAGCUUUUTT against Eppk1, inactive: 0.0614.
As to GGGAGAUCAAUCAUUACUUTT against Olfr332, the z-score was inactive: 0.281.
With GGGAAUAUUUGAAAUUCCATT against Usp54, the z-score was inactive: -0.235.
Take GCCAGGUCAAGGCAUACUUTT against Apoa2: the z-score is inactive: 1.8.
Regarding CCCGUAACAAGAAUUAGCGTT against Mccc2, the z-score was inactive: -0.127.
Turning to GGAGAUCUUCAGUCUCCUUTT against Homer1, the z-score was inactive: 0.556.
Turning to GGAUUAGGUCAUUAUUAGGTT against Kcne3, the z-score was inactive: -0.202.
Regarding GGGACACACCAUCAAAAGGTT against Kank4, the z-score is active: -2.32.
As to CCAAUGUUUUAGGCUUCCGTT against Tulp1, the z-score was inactive: 0.614.
